Laboratory results taken from the supplement of paper PMC12819154, “High-throughput peptide-centric local stability assay extends protein–ligand identification to membrane proteins, tissues and bacteria” (Nature Structural & Molecular Biology, 2025).
This is one part of the list. Most values lie at the level of the controls, where differences are scatter.

By UniProt entry, the sequences of proteins in these tests, tags left out. Where a name states a change or a piece, a line headed by the entry shows the natural chain unless it says otherwise.
UniProt Q571F8: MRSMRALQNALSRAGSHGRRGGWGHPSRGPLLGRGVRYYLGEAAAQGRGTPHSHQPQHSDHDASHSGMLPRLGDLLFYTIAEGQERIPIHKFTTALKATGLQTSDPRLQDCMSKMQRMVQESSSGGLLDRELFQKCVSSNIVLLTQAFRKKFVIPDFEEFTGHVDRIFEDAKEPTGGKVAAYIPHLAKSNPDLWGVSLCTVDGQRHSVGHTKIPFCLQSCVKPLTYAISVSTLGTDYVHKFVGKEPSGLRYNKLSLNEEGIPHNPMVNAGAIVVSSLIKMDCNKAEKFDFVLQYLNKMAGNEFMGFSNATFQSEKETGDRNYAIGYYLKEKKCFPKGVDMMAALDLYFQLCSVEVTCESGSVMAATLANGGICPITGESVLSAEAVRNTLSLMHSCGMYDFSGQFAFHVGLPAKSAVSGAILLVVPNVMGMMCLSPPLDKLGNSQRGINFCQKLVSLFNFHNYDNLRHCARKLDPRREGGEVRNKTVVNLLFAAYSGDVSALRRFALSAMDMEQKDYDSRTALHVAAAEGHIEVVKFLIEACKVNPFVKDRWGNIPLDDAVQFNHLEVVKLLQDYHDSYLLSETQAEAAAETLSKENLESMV
UniProt Q3UY96: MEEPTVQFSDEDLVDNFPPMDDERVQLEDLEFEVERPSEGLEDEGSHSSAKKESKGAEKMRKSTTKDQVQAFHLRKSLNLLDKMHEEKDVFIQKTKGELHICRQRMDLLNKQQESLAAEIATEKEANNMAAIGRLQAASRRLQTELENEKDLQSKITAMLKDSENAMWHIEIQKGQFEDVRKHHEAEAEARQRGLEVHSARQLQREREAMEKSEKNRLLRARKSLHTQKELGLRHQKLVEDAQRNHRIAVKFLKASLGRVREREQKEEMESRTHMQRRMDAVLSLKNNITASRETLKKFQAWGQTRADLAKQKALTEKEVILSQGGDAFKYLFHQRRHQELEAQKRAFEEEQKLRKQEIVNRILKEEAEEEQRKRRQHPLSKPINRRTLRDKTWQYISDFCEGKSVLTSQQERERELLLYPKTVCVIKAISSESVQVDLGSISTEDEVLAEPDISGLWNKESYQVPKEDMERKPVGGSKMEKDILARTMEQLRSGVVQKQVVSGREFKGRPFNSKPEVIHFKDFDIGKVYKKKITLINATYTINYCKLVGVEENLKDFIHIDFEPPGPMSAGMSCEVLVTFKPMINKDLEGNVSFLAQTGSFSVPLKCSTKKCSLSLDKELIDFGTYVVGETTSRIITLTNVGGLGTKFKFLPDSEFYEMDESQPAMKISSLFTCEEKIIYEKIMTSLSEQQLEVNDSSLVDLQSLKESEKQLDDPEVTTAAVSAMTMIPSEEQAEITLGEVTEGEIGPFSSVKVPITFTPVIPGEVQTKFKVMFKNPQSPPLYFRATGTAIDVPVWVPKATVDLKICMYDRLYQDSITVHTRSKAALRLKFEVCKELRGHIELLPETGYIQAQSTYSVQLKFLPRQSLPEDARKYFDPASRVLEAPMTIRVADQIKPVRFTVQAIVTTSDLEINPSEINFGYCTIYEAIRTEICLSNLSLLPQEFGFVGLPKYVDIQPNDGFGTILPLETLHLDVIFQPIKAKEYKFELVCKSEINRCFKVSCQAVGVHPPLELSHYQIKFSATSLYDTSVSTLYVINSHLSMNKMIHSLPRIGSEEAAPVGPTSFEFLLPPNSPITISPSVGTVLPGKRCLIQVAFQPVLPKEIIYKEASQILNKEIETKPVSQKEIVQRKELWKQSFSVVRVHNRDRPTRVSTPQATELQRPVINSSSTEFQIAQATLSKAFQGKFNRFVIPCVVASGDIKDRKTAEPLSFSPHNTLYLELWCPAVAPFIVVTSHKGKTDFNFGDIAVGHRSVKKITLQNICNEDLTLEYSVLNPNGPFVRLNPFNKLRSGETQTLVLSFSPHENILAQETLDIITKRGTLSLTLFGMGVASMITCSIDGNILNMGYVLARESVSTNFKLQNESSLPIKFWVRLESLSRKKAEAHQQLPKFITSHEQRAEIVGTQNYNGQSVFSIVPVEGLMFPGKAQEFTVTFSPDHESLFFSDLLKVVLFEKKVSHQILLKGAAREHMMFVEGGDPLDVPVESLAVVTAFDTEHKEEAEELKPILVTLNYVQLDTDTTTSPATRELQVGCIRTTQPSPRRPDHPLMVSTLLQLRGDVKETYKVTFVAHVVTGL
UniProt Q3UH93: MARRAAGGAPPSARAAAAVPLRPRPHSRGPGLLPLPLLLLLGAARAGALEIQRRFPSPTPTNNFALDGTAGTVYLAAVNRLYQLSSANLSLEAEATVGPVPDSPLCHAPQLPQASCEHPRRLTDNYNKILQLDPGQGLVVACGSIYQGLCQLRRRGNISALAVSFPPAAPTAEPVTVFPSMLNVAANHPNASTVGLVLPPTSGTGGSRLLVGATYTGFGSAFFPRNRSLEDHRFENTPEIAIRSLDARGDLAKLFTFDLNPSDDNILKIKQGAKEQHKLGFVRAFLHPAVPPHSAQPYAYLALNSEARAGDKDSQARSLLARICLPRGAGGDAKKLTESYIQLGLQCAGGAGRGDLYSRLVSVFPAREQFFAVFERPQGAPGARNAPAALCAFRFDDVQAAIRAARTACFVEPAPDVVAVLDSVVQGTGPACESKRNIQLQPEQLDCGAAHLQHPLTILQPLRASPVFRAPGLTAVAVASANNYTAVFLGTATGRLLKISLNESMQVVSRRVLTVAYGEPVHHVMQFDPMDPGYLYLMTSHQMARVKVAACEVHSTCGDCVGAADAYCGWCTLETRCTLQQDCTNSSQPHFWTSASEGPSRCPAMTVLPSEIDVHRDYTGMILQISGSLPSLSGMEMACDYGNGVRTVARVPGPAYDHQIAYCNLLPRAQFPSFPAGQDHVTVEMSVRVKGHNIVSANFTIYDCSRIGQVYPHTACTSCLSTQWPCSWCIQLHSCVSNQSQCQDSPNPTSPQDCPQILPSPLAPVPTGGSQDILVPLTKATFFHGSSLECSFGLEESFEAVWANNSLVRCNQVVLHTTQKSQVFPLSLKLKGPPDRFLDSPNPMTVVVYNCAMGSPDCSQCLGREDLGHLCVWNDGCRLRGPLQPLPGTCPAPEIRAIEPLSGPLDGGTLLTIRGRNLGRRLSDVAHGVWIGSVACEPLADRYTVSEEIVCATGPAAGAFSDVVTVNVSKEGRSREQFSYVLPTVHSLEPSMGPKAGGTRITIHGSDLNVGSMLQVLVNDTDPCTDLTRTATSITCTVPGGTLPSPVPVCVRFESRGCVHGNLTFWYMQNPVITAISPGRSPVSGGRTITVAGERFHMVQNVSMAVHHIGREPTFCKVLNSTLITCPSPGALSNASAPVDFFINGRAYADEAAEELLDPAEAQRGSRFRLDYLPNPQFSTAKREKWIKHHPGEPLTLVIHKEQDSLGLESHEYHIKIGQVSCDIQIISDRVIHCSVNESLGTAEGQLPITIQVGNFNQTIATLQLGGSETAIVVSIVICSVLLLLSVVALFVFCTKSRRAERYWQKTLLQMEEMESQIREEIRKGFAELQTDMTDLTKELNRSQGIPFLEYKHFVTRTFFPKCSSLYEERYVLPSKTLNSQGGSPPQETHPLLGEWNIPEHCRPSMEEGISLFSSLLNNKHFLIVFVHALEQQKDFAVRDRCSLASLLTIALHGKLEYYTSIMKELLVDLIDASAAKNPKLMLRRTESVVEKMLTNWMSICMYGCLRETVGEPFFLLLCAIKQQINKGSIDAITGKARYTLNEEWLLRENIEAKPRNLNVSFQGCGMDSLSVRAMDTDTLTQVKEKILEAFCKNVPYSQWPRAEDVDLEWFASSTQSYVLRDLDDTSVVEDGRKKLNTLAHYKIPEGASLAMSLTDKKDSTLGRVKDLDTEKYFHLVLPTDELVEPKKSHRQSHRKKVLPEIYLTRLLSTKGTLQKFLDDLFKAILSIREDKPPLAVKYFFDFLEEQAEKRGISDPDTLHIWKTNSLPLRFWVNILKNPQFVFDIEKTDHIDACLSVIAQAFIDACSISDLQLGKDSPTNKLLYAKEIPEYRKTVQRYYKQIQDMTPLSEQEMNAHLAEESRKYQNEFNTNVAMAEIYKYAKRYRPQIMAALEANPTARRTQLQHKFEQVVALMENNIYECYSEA
UniProt Q5DTN8: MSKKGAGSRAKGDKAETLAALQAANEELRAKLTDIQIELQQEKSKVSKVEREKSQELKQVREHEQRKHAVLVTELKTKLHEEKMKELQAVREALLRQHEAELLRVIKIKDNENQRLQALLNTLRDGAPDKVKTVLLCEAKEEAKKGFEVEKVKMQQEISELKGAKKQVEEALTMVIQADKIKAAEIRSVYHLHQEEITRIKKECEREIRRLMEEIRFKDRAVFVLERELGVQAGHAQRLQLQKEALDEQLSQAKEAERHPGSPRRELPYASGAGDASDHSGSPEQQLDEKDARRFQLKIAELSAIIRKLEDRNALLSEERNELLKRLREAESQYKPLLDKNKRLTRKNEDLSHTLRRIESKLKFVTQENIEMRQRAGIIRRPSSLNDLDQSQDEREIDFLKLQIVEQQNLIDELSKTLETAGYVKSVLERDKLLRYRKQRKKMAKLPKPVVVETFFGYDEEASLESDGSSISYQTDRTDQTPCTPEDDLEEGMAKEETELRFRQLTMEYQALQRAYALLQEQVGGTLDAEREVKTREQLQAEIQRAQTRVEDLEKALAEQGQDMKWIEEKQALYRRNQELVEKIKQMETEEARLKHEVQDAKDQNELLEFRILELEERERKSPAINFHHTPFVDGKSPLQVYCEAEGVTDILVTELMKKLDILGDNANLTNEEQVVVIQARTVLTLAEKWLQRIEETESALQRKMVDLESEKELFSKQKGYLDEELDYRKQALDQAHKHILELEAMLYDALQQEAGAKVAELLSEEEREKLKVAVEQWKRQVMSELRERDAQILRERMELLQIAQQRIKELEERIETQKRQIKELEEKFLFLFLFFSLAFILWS
UniProt Q3UZP0: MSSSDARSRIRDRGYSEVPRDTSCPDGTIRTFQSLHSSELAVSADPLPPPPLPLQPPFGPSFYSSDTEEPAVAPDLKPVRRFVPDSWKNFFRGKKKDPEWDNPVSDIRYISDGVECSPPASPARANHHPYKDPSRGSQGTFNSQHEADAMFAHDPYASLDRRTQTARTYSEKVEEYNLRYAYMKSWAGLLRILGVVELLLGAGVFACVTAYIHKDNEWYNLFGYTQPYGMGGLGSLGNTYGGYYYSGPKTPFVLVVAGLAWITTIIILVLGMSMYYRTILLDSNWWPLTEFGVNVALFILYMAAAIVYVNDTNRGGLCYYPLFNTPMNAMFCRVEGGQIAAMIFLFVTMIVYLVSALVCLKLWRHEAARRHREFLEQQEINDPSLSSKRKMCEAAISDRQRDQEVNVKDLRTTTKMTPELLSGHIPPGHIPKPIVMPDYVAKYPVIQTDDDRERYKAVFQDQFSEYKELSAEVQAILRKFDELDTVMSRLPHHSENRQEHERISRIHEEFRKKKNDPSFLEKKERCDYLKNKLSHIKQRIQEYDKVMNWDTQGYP
UniProt Q3UF25: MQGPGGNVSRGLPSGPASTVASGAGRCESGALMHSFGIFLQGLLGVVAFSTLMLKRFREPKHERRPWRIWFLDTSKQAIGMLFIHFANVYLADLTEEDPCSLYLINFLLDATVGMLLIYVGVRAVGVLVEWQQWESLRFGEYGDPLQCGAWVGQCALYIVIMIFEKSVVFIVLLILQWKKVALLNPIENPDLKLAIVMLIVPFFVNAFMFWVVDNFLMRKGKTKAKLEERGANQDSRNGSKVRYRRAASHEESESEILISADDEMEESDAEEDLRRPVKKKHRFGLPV
UniProt Q499E6: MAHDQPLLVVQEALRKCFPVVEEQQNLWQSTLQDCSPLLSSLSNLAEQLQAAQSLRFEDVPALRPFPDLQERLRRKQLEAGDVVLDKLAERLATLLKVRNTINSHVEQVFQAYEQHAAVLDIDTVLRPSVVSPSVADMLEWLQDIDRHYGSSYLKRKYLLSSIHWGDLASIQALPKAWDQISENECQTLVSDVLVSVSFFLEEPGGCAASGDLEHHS
UniProt Q3UJP5: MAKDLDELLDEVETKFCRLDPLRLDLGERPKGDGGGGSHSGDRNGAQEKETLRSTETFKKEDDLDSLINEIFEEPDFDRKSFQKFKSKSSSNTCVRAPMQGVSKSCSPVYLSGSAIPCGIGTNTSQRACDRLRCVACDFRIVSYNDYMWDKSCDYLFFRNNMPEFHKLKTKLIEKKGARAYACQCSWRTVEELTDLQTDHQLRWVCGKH

These targets were tested with CN[C@@H]1C[C@H]2O[C@@](C)([C@@H]1OC)n1c3ccccc3c3c4c(c5c6ccccc6n2c5c31)C(=O)NC4 [staurosporine] (assay: log2 fold change of tryptic peptide abundance, ligand vs vehicle (limited proteolysis) (log2 ratio); higher = more trypsin-susceptible (destabilized)). Settings: ligand concentration: 20 uM; sample: mouse liver crude lysate; replicate design: treated separately.

Target	log2 fold change
UniProt Q571F8 (peptide sequence: IFEDAKEPTGGK, peptide start residue: 167)	-0.175
UniProt Q3UY96 (peptide sequence: KPVGGSKMEK, peptide start residue: 473)	0.098
UniProt Q3UH93 (peptide sequence: EQDSLGLESHEYHIK, peptide start residue: 1202)	0.885
UniProt Q501J7 (peptide sequence: YRDEEEDDDDDESHQSALANR, peptide start residue: 513)	0.693
UniProt Q3UHU5 (peptide sequence: RSGVVPGAK, peptide start residue: 97)	-0.00913
UniProt Q5DTN8 (peptide sequence: IKELEER, peptide start residue: 808)	-0.0562
UniProt Q3UZP0 (peptide sequence: ANHHPYKDPSR, peptide start residue: 125)	-0.67
UniProt Q3U564 (peptide sequence: KLSLPVEK, peptide start residue: 280)	0.313
UniProt Q3UF25 (peptide sequence: KHRFGLPV, peptide start residue: 281)	0.00263
UniProt Q499E6 (peptide sequence: FEDVPALRPFPDLQER, peptide start residue: 57)	-0.125
UniProt Q3UJP5 (peptide sequence: LDPLRLDLGERPK, peptide start residue: 19)	0.149

Looked up one by one from above, 2 records:
Target	log2 fold change
UniProt Q571F8 (peptide sequence: IFEDAKEPTGGK, peptide start residue: 167)	-0.175
UniProt Q3U564 (peptide sequence: KLSLPVEK, peptide start residue: 280)	0.313
